Some of the results follow. Further columns of the screen follow, without active or inactive calls. The list favours compounds with an active or inconclusive main result. The note in brackets gives the kind of curve behind each potency; many fits are weak.

The nature of this test: qHTS Assay to Find Inhibitors of Chronic Active B-Cell Receptor Signaling. The note with it: ABC-DLBCL IkBa-CBG/CBR reporter, luminescence ratio (green luciferase fused to IkBa over red control in TMD8 lymphoma cells), 4 h. In outline: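 TMD8 ABC-DLBCL cells carrying doxycycline-inducible green luciferase fused to IkappaBalpha plus unfused red luciferase were exposed to compounds (up to 46 uM) for 4 hrs at 37C. Activity came from the overlap-corrected green/red luminescence ratio.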
On the technique in general: qHTS replaces the single test concentration by a dilution series.

Setting [1] is: measured here: CBR red luminescence, cell number.
Where [2] appears, read: measured here: IkBa-CBG green luminescence.

In general, AC50 refers to the concentration giving half of the maximal activity seen. As for `CCC(C)(C)C1CCC(=NNC(=O)c2ccc(Br)o2)CC1` (stereo unspecified), the AC50 under setting [1] was 9.2 µM [falling, single point].

`CCc1cccc(Nc2cc(C)nc3ncnn23)c1`: the AC50 by setting is: under setting [1], 29.1 µM [rising, single point]; under setting [2], 16.4 µM [falling, partial curve, poor fit].

Regarding `Cc1ccc(NC(=O)CC2Oc3ccccc3NC2=O)c(C)c1` (stereo unspecified), the AC50 under setting [1] was 1.84 µM [falling, single point].

Take `CC(=O)Oc1ccc2ccccc2c1C(NC(=O)C(C)C)c1cccc([N+](=O)[O-])c1` (stereo unspecified): the AC50 under setting [1] was 23.1 µM [falling, partial curve].

On to `Cc1ccc(N=Nc2c(C)[nH]n(C(N)=S)c2=O)cc1`, for which the AC50 by setting is: under setting [1], 4.47 µM [falling, full curve]; under setting [2], 1.78 µM [falling, full curve].

On to `CCc1ccc(OCC(=O)N2CC(C(N)=O)Oc3ccccc32)cc1` (stereo unspecified), for which, under setting [1], the AC50 was 8.91 µM [rising, partial curve].

On to `CN(C)c1ccc(-c2nc3ccccc3n2C)cc1`, for which, under setting [1], the concentration at half-maximal activity (AC50) was 12.6 µM [falling, single point].

In the case of `Cc1cc(Cl)cc(Br)c1OCCCNCC(C)O` (stereo unspecified), the AC50 under setting [1] was 15.8 µM [falling, single point].

For `COc1ccc(S(=O)(=O)NC(C)C)cc1-n1cnnn1`, under setting [1], the AC50 was 15.8 µM [falling, single point].

With `O=C(C(Cc1ccccc1)N1C(=O)c2ccccc2C1=O)N1c2ccccc2CCc2ccccc21` (stereo unspecified), the AC50 under setting [1] was 20.6 µM [falling, partial curve].

Turning to `Cc1nn(-c2ccccn2)c(N)c1N=O`, the concentration at half-maximal activity (AC50) under setting [1] was 20 µM [falling, single point].

`Cc1cccc(Nc2nc(NCc3ccco3)nc(N3CCOCC3)n2)c1`: the half-maximal activity concentration (AC50) under setting [1] is 32.6 µM [falling, single point].

For the compound `O=C(O)c1ccccc1CSc1nc2ccccc2[nH]1`, the AC50 under setting [1] is 12.6 µM [falling, partial curve, poor fit].

With `O=C(Cc1ccccc1)Nc1ccc(NC(=O)c2cccs2)cc1Cl`, under setting [1], the AC50 is 2.82 µM [falling, full curve, poor fit].

As to `Oc1cc(-c2ccccc2)c2ccccc2c1`, the AC50 under setting [1] is 9.2 µM [rising, partial curve].

With `CCOC(=O)Cc1csc(NC(=O)Nc2ccc(F)cc2)n1`, the AC50 under setting [1] is 15.8 µM [falling, single point].

In the case of `COc1ccc(NC(=S)NC(NC(=O)c2cccc(Cl)c2)C(Cl)(Cl)Cl)c([N+](=O)[O-])c1` (stereo unspecified), the AC50 under setting [1] was 32.6 µM [falling, partial curve, poor fit] and the AC50 under setting [2] is 23.1 µM [rising, partial curve, poor fit].

In the case of `COC(=O)COc1ccc2c(=O)c(-c3ccccc3OC)coc2c1`, under setting [1], the AC50 is 10 µM [falling, partial curve, poor fit].

As for `O=C(Nc1ccc(/C=C/c2nc3ccccc3o2)cc1)c1c(F)cccc1F`, the AC50 under setting [1] was 0.116 µM [rising, full curve].

With `CC(=O)Nc1ncc(Cc2ccc(Cl)cc2Cl)s1`, the AC50 under setting [1] was 20 µM [rising, partial curve, poor fit].

For the compound `Nc1c(C(=O)Nc2ccc(Cl)cc2)oc2ccccc12`, under setting [1], the concentration at half-maximal activity (AC50) is 11.2 µM [falling, partial curve].

In the case of `CCCc1nc(SCC(=O)NNC(=O)c2ccc(OC)cc2)c2ccccc2n1`, the AC50 under setting [1] was 6.31 µM [falling, partial curve].

In the case of `NS(=O)(=O)c1ccc(CCNC(=O)COC(=O)C2CCCN2C(=O)c2cccs2)cc1` (stereo unspecified), the AC50 under setting [1] is 15.8 µM [rising, partial curve, poor fit].

Take `CCN1C(=O)/C(=C/N2CCc3ccccc32)SC1=S`: the AC50 under setting [1] was 1.46 µM [rising, partial curve, poor fit].

For `CCOc1ccc2oc(C(=O)OC(C(=O)NC(N)=O)C(C)C)c(C)c2c1` (stereo unspecified), the half-maximal activity concentration (AC50) under setting [1] was 7.08 µM [rising, partial curve, poor fit].

For the compound `C=CCOC(=O)C(=O)/C=C/c1csc2ccccc12`, the half-maximal activity concentration (AC50) is, setting by setting: under setting [1], 15.8 µM [rising, partial curve]; under setting [2], 20 µM [rising, single point].

On to `O=C(/C=C/c1ccco1)Nc1ccccc1C(=O)O`, for which the AC50 under setting [1] is 0.355 µM [falling, full curve].

For the compound `O=C(CN1CCN(c2ccccn2)CC1)Nc1ccc(Oc2ccccc2)cc1`, the AC50 under setting [1] was 0.562 µM [rising, full curve, poor fit].

As for `COc1ccc(C=O)cc1COc1ccc(F)cc1F`, the AC50 is, setting by setting: under setting [1], 29.1 µM [rising, single point]; under setting [2], 32.6 µM [falling, partial curve, poor fit].

In the case of `NC(=O)c1oc2ccccc2c1NC(=O)c1ccc(F)cc1`, the AC50 under setting [1] is 0.82 µM [falling, full curve].

For the compound `COc1ccc(-c2nc3ncccc3n2O)cc1`, the AC50 under setting [1] is 12.6 µM [falling, single point].

Turning to `COc1ccc(Nc2cc(C(=O)NCCCN3CCN(C)CC3)c3ccccc3n2)cc1OC`, under setting [1], the AC50 is 1.12 µM [falling, full curve, poor fit].

Take `CCN(CC)S(=O)(=O)c1ccc(C(=O)OCC(=O)c2ccc3c(c2)NC(=O)CO3)cc1`: the AC50 under setting [1] was 17.8 µM [rising, single point].

In the case of `Cc1ccc(C(=O)N/N=C\c2cccs2)cn1`, the AC50 under setting [1] is 1.12 µM [falling, partial curve, poor fit].

As for `COc1ccc(NC(=O)CNC(=O)c2ccco2)cc1S(=O)(=O)Nc1cc(C)ccc1Br`, under setting [1], the AC50 was 25.9 µM [rising, single point].

On to `CC(Oc1cccc(Cl)c1)c1ccnc2nc(/N=C/N(C)C)nn12` (stereo unspecified), for which the half-maximal activity concentration (AC50) under setting [1] is 11.2 µM [falling, partial curve, poor fit].

Take `COc1cc(SC)ccc1C(=O)Nc1nc(C)cs1`: the concentration at half-maximal activity (AC50) was 4.47 µM [falling, partial curve, poor fit] under setting [1] and 12.6 µM [rising, partial curve, poor fit] under setting [2].

Consider `CC1CC(=O)Nc2ccccc2N1S(=O)(=O)c1ccc(F)cc1F` (stereo unspecified), for which the AC50 under setting [1] is 6.31 µM [falling, single point].

Regarding `Cc1ccc(C(=O)N2CCCC(Nc3ccc(F)cc3)C2)cc1C` (stereo unspecified), the AC50 under setting [1] was 22.4 µM [falling, single point].

As for `Cc1ccc(Cn2cc(CCC(=O)O)c3ccccc32)cc1`, the AC50 under setting [1] was 35.5 µM [rising, single point].

These data come from PubChem BioAssay AID493014 (National Center for Advancing Translational Sciences (NCATS), 2011).
